Tested on: primary AML samples
Assay: HLA class I ligandome analysis (W6/32 immunoaffinity purification, LC-MS/MS) of primary AML samples
Set-up: species or system human
Details: for Number of positive AMLs: HLA class I ligandome, AML patients (n=15), count for the HLA ligand (LiTAP) or, on protein lines, for the source protein (LiTAA); for Number of positive AMLs [rep. frequency]: representation frequency of the source protein (LiTAA) in AML patients (n=15)

Molecule | Number of positive AMLs | Number of positive AMLs [rep. frequency]
ATP2B4 (protein, UniProt P23634 1-1241, looked up) Plasma membrane …: MTNPSDRVLPANSMAESREGDFGCTVMELRKLMELRSRDALTQINVHYGGVQNLCSRLKTSPVEGLSGNPADLEKRRQVFGHNVIPPKKPKTFLELVWEALQDVTLIILEIAAIISLVLSFYRPAGEENELCGQVATTPEDENEAQAGWIEGAAILFSVIIVVLVTAFNDWSKEKQFRGLQCRIEQEQKFSIIRNGQLIQLPVAEIVVGDIAQVKYGDLLPADGILIQGNDLKIDESSLTGESDHVKKSLDKDPMLLSGTHVMEGSGRMVVTAVGVNSQTGIILTLLGVNEDDEGEKKKKGKKQGVPENRNKAKTQDGVALEIQPLNSQEGIDNEEKDKKAVKVPKKEKSVLQGKLTRLAVQIGKAGLLMSALTVFILILYFVIDNFVINRRPWLPECTPIYIQYFVKFFIIGITVLVVAVPEGLPLAVTISLAYSVKKMMKDNNLVRHLDACETMGNATAICSDKTGTLTMNRMTVVQAYIGGIHYRQIPSPDVFLPKVLDLIVNGISINSAYTSKILPPEKEGGLPRQVGNKTECALLGFVTDLKQDYQAVRNEVPEEKLYKVYTFNSVRKSMSTVIRNPNGGFRMYSKGASEIILRKCNRILDRKGEAVPFKNKDRDDMVRTVIEPMACDGLRTICIAYRDFDDTEPSWDNENEILTELTCIAVVGIEDPVRPEVPDAIAKCKQAGITVRMVTGDNINTARAIATKCGILTPGDDFLCLEGKEFNRLIRNEKGEVEQEKLDKIWPKLRVLARSSPTDKHTLVKGIIDSTVGEHRQVVAVTGDGTNDGPALKKADVGFAMGIAGTDVAKEASDIILTDDNFTSIVKAVMWGRNVYDSISKFLQFQLTVNVVAVIVAFTGACITQDSPLKAVQMLWVNLIMDTFASLALATEPPTESLLKRRPYGRNKPLISRTMMKNILGHAFYQLIVIFILVFAGEKFFDIDSGRKAPLHSPPSQHYTIVFNTFVLMQLFNEINSRKIHGEKNVFSGIYRNIIFCSVVLGTFICQIFIVEFGGKPFSCTSLSLSQWLWCLFIGIGELLWGQFISAIPTRSLKFLKEAGHGTTKEEITKDAEGLDEIDHAEMELRRGQILWFRGLNRIQTQIDVINTFQTGASFKGVLRRQNMGQHLDVKLVPSSSYIKVVKAFHSSLHESIQKPYNQKSIHSFMTHPEFAIEEELPRTPLLDEEEEENPDKASKFGTRVLLLDGEVTPYANTNNNAVDCNQVQLPQSDSSLQSLETSV | 3 | [20.0%]
HAL (protein, UniProt P42357 1-657, looked up) Histidine ammonia-lyase: MPRYTVHVRGEWLAVPCQDAQLTVGWLGREAVRRYIKNKPDNGGFTSVDDAHFLVRRCKGLGLLDNEDRLEVALENNEFVEVVIEGDAMSPDFIPSQPEGVYLYSKYREPEKYIELDGDRLTTEDLVNLGKGRYKIKLTPTAEKRVQKSREVIDSIIKEKTVVYGITTGFGKFARTVIPINKLQELQVNLVRSHSSGVGKPLSPERCRMLLALRINVLAKGYSGISLETLKQVIEMFNASCLPYVPEKGTVGASGDLAPLSHLALGLVGEGKMWSPKSGWADAKYVLEAHGLKPVILKPKEGLALINGTQMITSLGCEAVERASAIARQADIVAALTLEVLKGTTKAFDTDIHALRPHRGQIEVAFRFRSLLDSDHHPSEIAESHRFCDRVQDAYTLRCCPQVHGVVNDTIAFVKNIITTELNSATDNPMVFANRGETVSGGNFHGEYPAKALDYLAIGIHELAAISERRIERLCNPSLSELPAFLVAEGGLNSGFMIAHCTAAALVSENKALCHPSSVDSLSTSAATEDHVSMGGWAARKALRVIEHVEQVLAIELLAACQGIEFLRPLKTTTPLEKVYDLVRSVVRPWIKDRFMAPDIEAAHRLLLEQKVWEVAAPYIEKYRMEHIPESRPLSPTAFSLQFLHKKSTKIPESEDL | 3 | [20.0%]
PRIM1 (protein, UniProt P49642 1-420, looked up) DNA primase small subunit: METFDPTELPELLKLYYRRLFPYSQYYRWLNYGGVIKNYFQHREFSFTLKDDIYIRYQSFNNQSDLEKEMQKMNPYKIDIGAVYSHRPNQHNTVKLGAFQAQEKELVFDIDMTDYDDVRRCCSSADICPKCWTLMTMAIRIIDRALKEDFGFKHRLWVYSGRRGVHCWVCDESVRKLSSAVRSGIVEYLSLVKGGQDVKKKVHLSEKIHPFIRKSINIIKKYFEEYALVNQDILENKESWDKILALVPETIHDELQQSFQKSHNSLQRWEHLKKVASRYQNNIKNDKYGPWLEWEIMLQYCFPRLDINVSKGINHLLKSPFSVHPKTGRISVPIDLQKVDQFDPFTVPTISFICRELDAISTNEEEKEENEAESDVKHRTRDYKKTSLAPYVKVFEHFLENLDKSRKGELLKKSDLQKDF | 3 | [20.0%]
RENBP (protein, UniProt P51606 1-427, looked up) N-acylglucosamine 2-epimerase: MSKGLPARQDMEKERETLQAWKERVGQELDRVVAFWMEHSHDQEHGGFFTCLGREGRVYDDLKYVWLQGRQVWMYCRLYRTFERFRHAQLLDAAKAGGEFLLRYARVAPPGKKCAFVLTRDGRPVKVQRTIFSECFYTMAMNELWRATGEVRYQTEAVEMMDQIVHWVQEDASGLGRPQLQGAPAAEPMAVPMMLLNLVEQLGEADEELAGKYAELGDWCARRILQHVQRDGQAVLENVSEGGKELPGCLGRQQNPGHTLEAGWFLLRHCIRKGDPELRAHVIDKFLLLPFHSGWDPDHGGLFYFQDADNFCPTQLEWAMKLWWPHSEAMIAFLMGYSDSGDPVLLRLFYQVAEYTFRQFRDPEYGEWFGYLSREGKVALSIKGGPFKGCFHVPRCLAMCEEMLGALLSRPAPAPSPAPTPACRGAE | 3 | [20.0%]
CCNG1 (protein, UniProt P51959 1-295, looked up) Cyclin-G1: MIEVLTTTDSQKLLHQLNALLEQESRCQPKVCGLRLIESAHDNGLRMTARLRDFEVKDLLSLTQFFGFDTETFSLAVNLLDRFLSKMKVQPKHLGCVGLSCFYLAVKSIEEERNVPLATDLIRISQYRFTVSDLMRMEKIVLEKVCWKVKATTAFQFLQLYYSLLQENLPLERRNSINFERLEAQLKACHCRIIFSKAKPSVLALSIIALEIQAQKCVELTEGIECLQKHSKINGRDLTFWQELVSKCLTEYSSNKCSKPNVQKLKWIVSGRTARQLKHSYYRITHLPTIPEMVP | 3 | [20.0%]
ZNF131 (protein, UniProt P52739 1-623, looked up) Zinc finger protein 131: MEAEETMECLQEFPEHHKMILDRLNEQREQDRFTDITLIVDGHHFKAHKAVLAACSKFFYKFFQEFTQEPLVEIEGVSKMAFRHLIEFTYTAKLMIQGEEEANDVWKAAEFLQMLEAIKALEVRNKENSAPLEENTTGKNEAKKRKIAETSNVITESLPSAESEPVEIEVEIAEGTIEVEDEGIETLEEVASAKQSVKYIQSTGSSDDSALALLADITSKYRQGDRKGQIKEDGCPSDPTSKQVEGIEIVELQLSHVKDLFHCEKCNRSFKLFYHFKEHMKSHSTESFKCEICNKRYLRESAWKQHLNCYHLEEGGVSKKQRTGKKIHVCQYCEKQFDHFGHFKEHLRKHTGEKPFECPNCHERFARNSTLKCHLTACQTGVGAKKGRKKLYECQVCNSVFNSWDQFKDHLVIHTGDKPNHCTLCDLWFMQGNELRRHLSDAHNISERLVTEEVLSVETRVQTEPVTSMTIIEQVGKVHVLPLLQVQVDSAQVTVEQVHPDLLQDSQVHDSHMSELPEQVQVSYLEVGRIQTEEGTEVHVEELHVERVNQMPVEVQTELLEADLDHVTPEIMNQEERESSQADAAEAAREDHEDAEDLETKPTVDSEAEKAENEDRTALPVLE | 3 | [20.0%]
HRSP12 (protein, UniProt P52758 2-137, looked up) 2-iminobutanoate/2-iminopropan …: SSLIRRVISTAKAPGAIGPYSQAVLVDRTIYISGQIGMDPSSGQLVSGGVAEEAKQALKNMGEILKAAGCDFTNVVKTTVLLADINDFNTVNEIYKQYFKSNFPARAAYQVAALPKGSRIEIEAVAIQGPLTTASL | 3 | [20.0%]
TMPRSS3 (protein, UniProt P57727 1-454, looked up) Transmembrane protease serine …: MGENDPPAVEAPFSFRSLFGLDDLKISPVAPDADAVAAQILSLLPLKFFPIIVIGIIALILALAIGLGIHFDCSGKYRCRSSFKCIELIARCDGVSDCKDGEDEYRCVRVGGQNAVLQVFTAASWKTMCSDDWKGHYANVACAQLGFPSYVSSDNLRVSSLEGQFREEFVSIDHLLPDDKVTALHHSVYVREGCASGHVVTLQCTACGHRRGYSSRIVGGNMSLLSQWPWQASLQFQGYHLCGGSVITPLWIITAAHCVYDLYLPKSWTIQVGLVSLLDNPAPSHLVEKIVYHSKYKPKRLGNDIALMKLAGPLTFNEMIQPVCLPNSEENFPDGKVCWTSGWGATEDGAGDASPVLNHAAVPLISNKICNHRDVYGGIISPSMLCAGYLTGGVDSCQGDSGGPLVCQERRLWKLVGATSFGIGCAEVNKPGVYTRVTSFLDWIHEQMERDLKT | 3 | [20.0%]
UBE2G2 (protein, UniProt P60604 2-165, looked up) Ubiquitin-conjugating enzyme …: AGTALKRLMAEYKQLTLNPPEGIVAGPMNEENFFEWEALIMGPEDTCFEFGVFPAILSFPLDYPLSPPKMRFTCEMFHPNIYPDGRVCISILHAPGDDPMGYESSAERWSPVQSVEKILLSVVSMLAEPNDESGANVDASKMWRDDREQFYKIAKQIVQKSLGL | 3 | [20.0%]
NOP14 (protein, UniProt P78316 1-857, looked up) Nucleolar protein 14: MAKAKKVGARRKASGAPAGARGGPAKANSNPFEVKVNRQKFQILGRKTRHDVGLPGVSRARALRKRTQTLLKEYKERDKSNVFRDKRFGEYNSNMSPEEKMMKRFALEQQRHHEKKSIYNLNEDEELTHYGQSLADIEKHNDIVDSDSDAEDRGTLSAELTAAHFGGGGGLLHKKTQQEGEEREKPKSRKELIEELIAKSKQEKRERQAQREDALELTEKLDQDWKEIQTLLSHKTPKSENRDKKEKPKPDAYDMMVRELGFEMKAQPSNRMKTEAELAKEEQEHLRKLEAERLRRMLGKDEDENVKKPKHMSADDLNDGFVLDKDDRRLLSYKDGKMNVEEDVQEEQSKEASDPESNEEEGDSSGGEDTEESDSPDSHLDLESNVESEEENEKPAKEQRQTPGKGLISGKERAGKATRDELPYTFAAPESYEELRSLLLGRSMEEQLLVVERIQKCNHPSLAEGNKAKLEKLFGFLLEYVGDLATDDPPDLTVIDKLVVHLYHLCQMFPESASDAIKFVLRDAMHEMEEMIETKGRAALPGLDVLIYLKITGLLFPTSDFWHPVVTPALVCLSQLLTKCPILSLQDVVKGLFVCCLFLEYVALSQRFIPELINFLLGILYIATPNKASQGSTLVHPFRALGKNSELLVVSAREDVATWQQSSLSLRWASRLRAPTSTEANHIRLSCLAVGLALLKRCVLMYGSLPSFHAIMGPLQALLTDHLADCSHPQELQELCQSTLTEMESQKQLCRPLTCEKSKPVPLKLFTPRLVKVLEFGRKQGSSKEEQERKRLIHKHKREFKGAVREIRKDNQFLARMQLSEIMERDAERKRKVKQLFNSLATQEGEWKALKRKKFKK | 3 | [20.0%]
